Test results published in PMC11867973.
Results are given in words; binding and its absence hold for the method and conditions named. In cells and extracts the contact can be indirect. Some binding calls cover weakened binding; strength is not graded here.

Amino acid sequences for entries named in this document (tags omitted).
UniProt Q03135: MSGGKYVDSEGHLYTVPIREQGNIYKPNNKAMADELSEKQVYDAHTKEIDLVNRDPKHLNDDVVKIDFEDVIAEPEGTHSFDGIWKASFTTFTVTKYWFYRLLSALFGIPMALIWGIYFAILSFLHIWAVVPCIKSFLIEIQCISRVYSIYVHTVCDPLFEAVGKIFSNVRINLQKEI

Target: epithelial growth factor receptor (human (endogenous in JHOS2)) (UniProt P00533)
Experiment: co-IP; JHOS2 cell lysate (Triton X-100 lysis buffer: 50 mM Tris-HCl pH 7.5, 10% glycerol, 150 mM NaCl, 1 mM EDTA, 1% Triton X-100, 50 mM NaF) incubated overnight at 4 °C with anti-EGFR antibody, human IgG1 isotype control as control; protein A agarose beads 1 h at 4 °C; immunoblot for CAV1

With caveolin 1 (from UniProt Q03135 1-178) as the substance, how does the binding read?
The binding was “binds”.
